Test system: B16.F10 melanoma cells
Test: Removal of exogenous LysoPC from the medium (PC/LysoPC and free choline assays)
Format: cell-based, mouse
Source text: Cell culture and LysoPC feeding: Mouse melanoma cell line B16.F10 (ATCC, CRL-6475) was passaged in vitro in DMEM as described before (Fritzsche, J. et al., Thromb. Haemost. 100:1166-1175 (2008)). Cells were routinely (monthly) tested to be negative of mycoplasms, their morphological appearance observed by microscopic means and examined for the expression of adhesion receptors and ligands by flow cytometry. LysoPC removal (1-Heptadecanoyl-2-hydroxy-sn-glycero-3-phosphocholine, (C17:0; HEP-LysoPC), Avanti Polar Lipids, Inc., or 1-Hexadecanoyl-sn-glycero-3-phosphocholine, (C16:0; HEX-LysoPC), Sigma, Taufkirchen, Germany was determined using 1×10^5 cells in 24-well tissue culture plates (Greiner BioOne, Frickenhausen, Germany). Non-cytotoxic LysoPC/BSA DMEM-solutions (FIG. 7 A) were prepared by adding 20-40 mg/ml bovine serum albumine (BSA, PAA Laboratories GmbH, Cölbe, Germany). Cell culture supernatants were collected from triplicates of LysoPC treated and untreated control wells. Cells were removed from tissue culture plates using trypsin/EDTA. Centrifuged supernatants and cell pellets were stored at −20° C. and −80° C. until analysis, respectively. […]
Determination of LysoPC concentration: LysoPC concentration was determined by an enzymatic PL (PC/LysoPC) assay containing phospholipase D and choline oxidase (mti diagnostics GmbH, Idstein, Germany). […] GlyceroPC was determined using the assay for free choline adding 1 IU/ml of sn-glycerol-3-phosphocholine phosphodiesterase (Sigma, Taufkirchen, Germany). […]
LysoPC removal was determined by measuring total choline (LysoPC and free choline) and subtracting the values of free choline as measured by a separate free choline assay (for details see FIG. 7 B-D).
B, C and D) Colorimetric assays for the quantification of LysoPC removal from the supernatant of B16.F10. The removal of the added LysoPC from the supernatant of B16.F10 cells was determined by a combination of two colorimetric assays. […]
In contrast, the second assay only quantifies free choline (FC) (C). […]

CCCCCCCCCCCCCCCCC(=O)OC[C@@H](O)COP(=O)([O-])OCC[N+](C)(C)C [LysoPC]
removal of LysoPC from the medium by cells (B16.F10 and B16.F10 ELN cells, time-course, BSA added): rapid reduction | removed amount of LysoPC as multiple of the total amount of cellular PLs (LysoPC added at 300 μM-450 μM): approximately 125 times | elimination of LysoPC from supernatant (at least 48 h after adding): total elimination

— patent publication US20130012473A1, “COMBINED USE OF PHOSPHOLIPID AND SULFATE GROUPS-CARRYING POLYSACCHARIDES FOR INHIBITING METASTATIC SPREAD” (KTB TUMORFORSCHUNGSGESELLSCHAFT MBH, priority 2010, published 2013)
